Measurements: the supplement of paper PMC6414424
Structures can show the parent of a compound that is named as a salt. ± gives the standard deviation of the averaged measurements. Some of the results follow.

These compounds were tested on APPdp1-6 iPSC-derived neurons (assay: pThr231Tau/total Tau ratio Z-score vs DMSO vehicle wells; higher = more pThr231Tau relative to total Tau). Details: 5 µM; treatment time 5 days.

| Structure (SMILES) | pThr231Tau/total Tau ratio Z-score |
| --- | --- |
| CCOC(=O)c1ccc(OC(=O)CCCCCN=C(N)N)cc1 [Prestw-1008] | -0.517 ± 0.18 |
| CCCC(C(=O)OCCN(CC)CC)(c1ccccc1)c1ccccc1 [Prestw-778] | 1.22 ± 0.93 |
| CN1CCC[C@H]1c1cccnc1 [Prototype nicotinic acetylcholine receptor agonist] | 0.321 ± 0.93 |
| O=P(O)(O)C(O)(Cc1cccnc1)P(=O)(O)O [RISEDRONATE SODIUM HYDRATE, calcium regulator] | 0.578 ± 1.2 |
| O=C(O)c1cc(O)c(O)c(O)c1 [Gallic acid] | 0.038 ± 0.29 |
| Nc1ccc(N=Nc2ccccc2)c(N)n1 [Prestw-752] | 0.288 ± 1 |
| CCN(CC)C(=O)N1CCN(C)CC1 [Prestw-284] | 0.177 ± 1.2 |
| CC[C@]1(O)C[C@@H]2CN(CCc3c([nH]c4ccccc34)[C@@](C(=O)OC)(c3cc4c(cc3OC)N(C)[C@H]3[C@@](O)(C(=O)OC)[C@H](OC(C)=O)[C@]5(CC)C=CCN6CC[C@]43[C@@H]65)C2)C1 | -4.89 ± 0.97 |
| CC(=O)[C@H]1CC[C@H]2[C@@H]3CC=C4C[C@@H](OC(=O)CCC(=O)O)CC[C@]4(C)[C@H]3CC[C@]12C [PREGNENOLONE SUCCINATE, glucocortcoid, antiinflammatory] | 0.738 ± 0.9 |
| Cc1c(C)c2c(c(C)c1O)CC[C@@](C)(CCC[C@H](C)CCC[C@H](C)CCCC(C)C)O2 | 0.511 ± 0.51 |
| CCCCC(CC)COC(=O)c1ccccc1O (stereo not given) [OCTISALATE, sunscreen] | 0.353 ± 0.45 |
| CCN(CCCc1ccccc1)CCCc1ccccc1 [Prestw-174] | 0.995 ± 1.4 |
| CCSc1ccc2c(c1)N(CCCN1CCN(C)CC1)c1ccccc1S2 [Prestw-1068] | 0.413 ± 0.12 |
| C[N+](C)(C)CCOP(=O)([O-])OP(=O)(O)OC[C@H]1O[C@@H](n2ccc(N)nc2=O)[C@H](O)[C@@H]1O | -0.537 ± 0.77 |
| CN(C)CCC(c1ccccc1)c1ccccn1 (stereo not given) [Prestw-59] | 0.55 ± 1.8 |
| CC(C)CCC[C@@H](C)[C@H]1CC[C@H]2[C@@H]3CC=C4C[C@@H](O)CC[C@]4(C)[C@H]3CC[C@]12C [CHOLESTEROL, emulsifying agent] | 0.0975 ± 1.2 |
| Cc1ccc(O)c([C@H](CCN(C(C)C)C(C)C)c2ccccc2)c1 [TOLTERODINE TARTRATE, muscarinic receptor antagonist] | -0.71 ± 0.032 |
| CCCCOc1ccc(CC(=O)NO)cc1 [Prestw-243] | -0.131 ± 0.33 |
| CC(=O)OC(C)C[N+](C)(C)C (stereo not given) [Prestw-759] | 0.559 ± 1.2 |
| C=CCc1ccccc1OCC(O)CNC(C)C (stereo not given) [Prestw-250] | -0.135 ± 0.48 |

Part of the list above, with bars between the fields.
Structure (SMILES) | pThr231Tau/total Tau ratio Z-score
CN1CCC[C@H]1c1cccnc1 [Prototype nicotinic acetylcholine receptor agonist] | 0.321 ± 0.93
O=C(O)c1cc(O)c(O)c(O)c1 [Gallic acid] | 0.038 ± 0.29
CCN(CC)C(=O)N1CCN(C)CC1 [Prestw-284] | 0.177 ± 1.2
Cc1c(C)c2c(c(C)c1O)CC[C@@](C)(CCC[C@H](C)CCC[C@H](C)CCCC(C)C)O2 | 0.511 ± 0.51
CCCCC(CC)COC(=O)c1ccccc1O (stereo not given) [OCTISALATE, sunscreen] | 0.353 ± 0.45
CCN(CCCc1ccccc1)CCCc1ccccc1 [Prestw-174] | 0.995 ± 1.4
CN(C)CCC(c1ccccc1)c1ccccn1 (stereo not given) [Prestw-59] | 0.55 ± 1.8
C=CCc1ccccc1OCC(O)CNC(C)C (stereo not given) [Prestw-250] | -0.135 ± 0.48

More entries:

| Structure (SMILES) | pThr231Tau/total Tau ratio Z-score |
| --- | --- |
| Oc1c(Cl)cc(Cl)cc1Sc1cc(Cl)cc(Cl)c1O [BITHIONOL    Therap cat:  anthelmintic; antiseptic] | 0.235 ± 1.1 |
| C[C@H]1c2cccc(O)c2C(O)=C2C(=O)[C@]3(O)C(O)=C(C(N)=O)C(=O)[C@@H](N(C)C)[C@@H]3[C@@H](O)[C@@H]21 [Prestw-1399] | -0.232 ± 0.35 |
| O=C(O)c1cc(=O)c2c(OCC(O)COc3cccc4oc(C(=O)O)cc(=O)c34)cccc2o1 [Prestw-812] | 0.114 ± 1.1 |
| CC[C@]12CCCN3CCc4c(n(c5ccccc45)[C@@](O)(C(=O)OC)C1)[C@@H]32 [Prestw-271] | -1.07 ± 1.1 |
| Nc1ccc(S(N)(=O)=O)cc1 [Prestw-729] | -0.506 ± 0.37 |
| CC(CCc1ccc(O)cc1)NCCc1ccc(O)c(O)c1 (stereo not given) [Prestw-352] | -0.0216 ± 0.28 |
| C[C@@H](O)[C@H]1C(=O)N2C(C(=O)O)=C(SCCN=CN)C[C@H]12 [Prestw-519] | -0.665 ± 0.018 |
| CC1=C(C(=O)O)N2C(=O)[C@@H](NC(=O)[C@H](N)c3ccc(O)cc3)[C@H]2SC1 [Prestw-434] | 0.348 ± 1 |
| C=CCN1CCCC1CNC(=O)c1cc2nn[nH]c2cc1OC (stereo not given) [Prestw-451] | -0.739 ± 0.31 |
| CC(C)(Oc1ccc(C2CC2(Cl)Cl)cc1)C(=O)O (stereo not given) [Prestw-1076] | -0.353 ± 0.55 |
| CCCc1nc(C)c2c(=O)[nH]c(-c3cc(S(=O)(=O)N4CCN(CC)CC4)ccc3OCC)nn12 [Prestw-1356] | 0.306 ± 0.2 |
| C=C(NC(=O)C(=C)NC(=O)c1csc(C2=N[C@@H]3c4csc(n4)[C@H]4NC(=O)c5csc(n5)[C@H]([C@](C)(O)[C@@H](C)O)NC(=O)[C@H]5CSC(=N5)/C(=C/C)NC(=O)[C@H]([C@@H](C)O)NC(=O)c5csc(n5)[C@]3(CC2)NC(=O)[C@H](C)NC(=O)C(=C)NC(=O)[C@H](C)NC(=O)[C@H]([C@@H](C)CC)N[C@@H]2C=Cc3c([C@H](C)O)cc(nc3[C@H]2O)C(=O)O[C@@H]4C)n1)C(N)=O [Prestw-522] | -3.89 ± 1.2 |
| CCC(C)(CN(C)C)OC(=O)c1ccccc1 (stereo not given) [Prestw-49] | -1.109 ± 0.00044 |
| Nc1nccs1 [AMINOTHIAZOLE    Therap cat: antithyroid agent] | 0.649 ± 1 |
| NC(=O)c1cccnc1 [Prestw-1449] | -0.784 ± 2 |
| Cn1c(=O)c2c(ncn2CC(O)CO)n(C)c1=O (stereo not given) [Prestw-33] | 0.426 ± 0.1 |
| CCCCCCCCCCCCCCCC[N+](C)(C)C [CETRIMONIUM BROMIDE    Therap cat: antiseptic] | -3.3 ± 1.3 |
| S=c1nc[nH]c2nc[nH]c12 [Prestw-1469] | 0.132 ± 0.74 |
| CNC1(C)C2CCC(C2)C1(C)C (stereo not given) [Prestw-1111] | 6.81 ± 9.1 |
| NC(=O)C1(N2CCCCC2)CCN(CCCC(=O)c2ccc(F)cc2)CC1 [PIPAMPERONE, antipsychotic] | 1.34 ± 1.5 |
